Test results reported in PMC2647743 (Bioconjugate chemistry, 2008).

Tested on: PC-3 tumor xenografts
Assay: Biodistribution
Details: PC-3 tumor bearing SCID mice, 4 hr p.i., i.v., n = 5

`CSCC[C@H](NC(=O)[C@H](CC(C)C)NC(=O)[C@H](Cc1cnc[nH]1)NC(=O)CNC(=O)[C@@H](NC(=O)[C@H](C)NC(=O)[C@H](Cc1c[nH]c2ccccc12)NC(=O)[C@H](CCC(N)=O)NC(=O)CCCCCCCNC(=O)CN1CCN(CC(=O)O)CCN(CC(=O)O)CCN(CC(=O)O)CC1)C(C)C)C(N)=O` [In-DOTA-8-AOC-BBN(7-14)NH2] showed a Blood of 0.03 ± 0.01 %ID/g and a Heart of 0.03 ± 0.02 %ID/g.
